Data published in patent US7160894B2, “Tricyclic compound” (Asahi Kasei Pharma Corporation, priority 2003, dated 2007).
pIC50: −log10 of the molar value. Some entries share one result that the patent states for a list of compounds.

What was measured:
[1] = tested on: phosphorylated myosin regulatory light chain in neutrophils; assay: Action on amount of phosphorylated myosin regulatory light chain in the cells (Test Example 1); assay type: cell-based; conditions: human neutrophils, reaction at 25° C. for 5 minutes; read-out: concentration at which the phosphorylation of myosin regulatory light chain is inhibited (IC50)
Experimental: A volume of 50 to 100 ml of peripheral blood collected from healthy volunteers was centrifuged by using Mono-Poly separator solution (Dainippon Pharmaceutical) to prepare a neutrophil containing fraction. The neutrophils were washed with PBS(−) and resuspended in Hanks' Balanced Salt Solution (HBSS+, Gibco) to prepare a cell suspension (8×10^6/ml). The cell suspension was diluted to 5×10^6/ml, introduced into Eppendorf tubes in a volume of 0.4 ml each, then 0.1 ml each of solutions of a test compound at various concentrations were added to the suspension and allowed to react at 25° C. for 5 minutes. After the reaction, 0.1 ml of trichloroacetic acid solution was added to each reaction, the reaction mixture was gently shaken and centrifuged at 12,000 rpm (4° C., 5 minutes), and the supernatant was removed. Subsequently, 3 μl of 1 M Tris solution was added to the residue, the mixture was further mixed with 50 μl of extraction buffer (8 M urea, 0.02% 2-mercaptoethanol, 0.002% bromophenol blue) and left stand at room temperature for 1 hour. Then, the reaction mixture was loaded on a spin column (0.45 μm, Millipore) to remove the insoluble solids and a sample buffer for SDS polyacrylamide gel electrophoresis (25 mM, Tris-HCl pH 6.8, 2.5% 2-mercaptoethanol, 2% sodium dodecylsulfate, 5% sucrose, 0.002% bromophenol blue as final concentrations) was added, and 10 μl of each sample was subjected to electrophoresis.
The gel after the electrophoresis was blotted on a nitrocellulose membrane (BioRad), blocked with 5% skim milk, and reacted successively with antibodies pLC1 (Sakurada K. et al, Am. J. Physiol., 274, C1563–C1572 (1998)), which specifically recognize the phosphorylated myosin regulatory light chain, and donkey anti-mouse IgG (Chemicon) conjugated with horseradish peroxidase. The band of the phosphorylated myosin regulatory light chain was detected on a film by using ECL Plus Kit (Amersham Pharmacia Biotech). This band was subjected to quantification using a densitometer. By using this value, the inhibitory ratio (%) for phosphorylation of the myosin regulatory light chain was calculated by using the following equation. Phosphorylation inhibition ratio (%)=1−(Band intensity of phosphorylated myosin regulatory light chain with addition of the test compound/Band intensity of phosphorylated myosin regulatory light chain without addition of the test compound)×100
Further, the phosphorylation inhibition ratio was calculated with changing the concentrations of the test compound, and a compound concentration providing an inhibition ratio of 50% was obtained as IC50.

neutrophils = assay: Neutrophil migration inhibitory action, Boyden Chamber, FMLP (Test Example 6); assay type: cell-based; conditions: human neutrophils, FMLP 1 μM, 37° C., 30 minutes; read-out: concentration at which the migration of neutrophils is inhibited (IC50)
Experimental: Neutrophils were isolated from 50 to 100 ml of peripheral blood collected from healthy human donors by the method described in Test Example 1 to obtain a cell suspension (8×10^6/ml). Subsequently, solutions of a test compound at various concentrations were introduced into wells of a 96-well plate in a volume of 125 μl per well, the cell suspension of an equivalent volume was added to it and the plate was preincubated at room temperature for 5 minutes. During the preincubation, FMLP (1 μM, Sigma) solution was added to the lower chamber to set Boyden Chamber, the preincubated cell suspension was added to the upper chamber in a volume of 200 μl per well, and the cells were allowed to migrate at 37° C. under 5% carbon dioxide for 30 minutes. The filter after the migration was collected, and the non-migrated cells adhered to the surface that faced the upper chamber were carefully wiped off. Then, the migrated cells on the back surface were stained with DifQuick dye solution (International Reagents), washed with water and dried, and then absorbance was measured at 595 nm. The inhibition ratio against migration (%) of a test compound was calculated by using the following equation: Migration inhibition ratio (%)=(1−Absorbance of the group with addition of test compound/Absorbance of the group without addition of test compound)×100
Further, the migration inhibitory ratio was calculated with changing the test compound concentration, and a compound concentration providing an inhibition ratio of 50% was obtained as IC50. The compounds of the present invention obtained in Examples 1, 11, 12, 13, 14, 15, 16, 18, 19, 20, 21, 22, 24, 31, 41, 42, 47, 52, 53, 54, 55, 56, 57, 58, 59, 60, 62, 63, 64, 65, 66, 67, 68, 72, 73, 74, 75, 76, 77, 78, 79, 80, 81, 82, 83, 84, 87, 88, 89, 90, and 91 inhibited the migration of neutrophils at a concentration of 40 μM or less, and further, the compounds of Examples 1, 11, 12, 13, 14, 15, 19, 21, 22, 24, 31, and 41 inhibited the migration of neutrophils at a concentration of 10 μM or less. Further, trans-benzyl-[4-(2,3-dihydro-1,5-diazaphenalen-1-yl)cyclohexyl]amine inhibited the migration of neutrophils at a concentration of 40 μM or less.

SMILES | pIC50 [1] | pIC50 (neutrophils)
Cl.O=C(O)CCN1CCC(N2CCc3cncc4cccc2c34)CC1 [Example 16] | ≥ 4.40 | ≥ 4.40
CNCCN1CCC(N2CCc3cncc4cccc2c34)CC1 [Example 57] | ≥ 4.40 | ≥ 4.40
Cl.Oc1ncc2c3c(cccc13)N(C1CCNCC1)CC2 [Example 62] | ≥ 4.40 | ≥ 4.40
Cl.OCCN1CCC(N2CCc3cnc(O)c4cccc2c34)CC1 [Example 63] | ≥ 4.40 | ≥ 4.40
Cl.OCCCN1CCC(N2CCc3cnc(O)c4cccc2c34)CC1 [Example 64] | ≥ 4.40 | ≥ 4.40
NCCN1CCC(N2CCc3cnc(O)c4cccc2c34)CC1 [Example 65] | ≥ 4.40 | ≥ 4.40
NCCCN1CCC(N2CCc3cnc(O)c4cccc2c34)CC1 [Example 66] | ≥ 4.40 | ≥ 4.40
CC(=O)NCCN1CCC(N2CCc3cnc(O)c4cccc2c34)CC1 [Example 67] | ≥ 4.40 | ≥ 4.40
CCC(=O)NCCN1CCC(N2CCc3cnc(O)c4cccc2c34)CC1 [Example 68] | ≥ 4.40 | ≥ 4.40
CC(C)C(=O)NCCN1CCC(N2CCc3cnc(O)c4cccc2c34)CC1 [Example 70] | ≥ 4.40 | –
CC(=O)NCCCN1CCC(N2CCc3cnc(O)c4cccc2c34)CC1 [Example 72] | ≥ 4.40 | ≥ 4.40
CCC(=O)NCCCN1CCC(N2CCc3cnc(O)c4cccc2c34)CC1 [Example 73] | ≥ 4.40 | ≥ 4.40
CCCC(=O)NCCCN1CCC(N2CCc3cnc(O)c4cccc2c34)CC1 [Example 74] | ≥ 4.40 | ≥ 4.40
CC(C)C(=O)NCCCN1CCC(N2CCc3cnc(O)c4cccc2c34)CC1 [Example 75] | ≥ 4.40 | ≥ 4.40
CC(C)(C)C(=O)NCCCN1CCC(N2CCc3cnc(O)c4cccc2c34)CC1 [Example 76] | ≥ 4.40 | ≥ 4.40
N[C@H]1CC[C@H](N2CCc3cnc(O)c4cccc2c34)CC1 [Example 77] | ≥ 4.40 | ≥ 4.40
Cl.OCCN[C@H]1CC[C@H](N2CCc3cnc(O)c4cccc2c34)CC1 [Example 78] | ≥ 4.40 | ≥ 4.40
Cl.OCCCN[C@H]1CC[C@H](N2CCc3cnc(O)c4cccc2c34)CC1 [Example 79] | ≥ 4.40 | ≥ 4.40
NCCN[C@H]1CC[C@H](N2CCc3cnc(O)c4cccc2c34)CC1 [Example 80] | ≥ 4.40 | ≥ 4.40
NCCCN[C@H]1CC[C@H](N2CCc3cnc(O)c4cccc2c34)CC1 [Example 81] | ≥ 4.40 | ≥ 4.40
CC(=O)NCCN[C@H]1CC[C@H](N2CCc3cnc(O)c4cccc2c34)CC1.Cl [Example 82] | ≥ 4.40 | ≥ 4.40
CCC(=O)NCCN[C@H]1CC[C@H](N2CCc3cnc(O)c4cccc2c34)CC1.Cl [Example 83] | ≥ 4.40 | ≥ 4.40
CCCC(=O)NCCN[C@H]1CC[C@H](N2CCc3cnc(O)c4cccc2c34)CC1.Cl [Example 84] | ≥ 4.40 | ≥ 4.40
CC(C)C(=O)NCCN[C@H]1CC[C@H](N2CCc3cnc(O)c4cccc2c34)CC1 [Example 85] | ≥ 4.40 | –
CC(C)(C)C(=O)NCCN[C@H]1CC[C@H](N2CCc3cnc(O)c4cccc2c34)CC1 [Example 86] | ≥ 4.40 | –
CC(=O)NCCCN[C@H]1CC[C@H](N2CCc3cnc(O)c4cccc2c34)CC1.Cl [Example 87] | ≥ 4.40 | ≥ 4.40
CCC(=O)NCCCN[C@H]1CC[C@H](N2CCc3cnc(O)c4cccc2c34)CC1.Cl [Example 88] | ≥ 4.40 | ≥ 4.40
